Test results reported in US20040053278A1.
Changes are numbered by the printed parent chain. No constants are given. Whether binding was seen depends on the method and setting. For some of these results: In cells and extracts the contact can be indirect. Some results given as binding are weak or reduced against the parent protein; the word gives no strength. Sequences can lack the tags named with a protein.

Key:
[1] = molecular target: T1, activin type IB receptor (ActR-IB), wild type (UniProt P36896); test: affinity cross-linking and immunoprecipitation
T1 sequence (looked up): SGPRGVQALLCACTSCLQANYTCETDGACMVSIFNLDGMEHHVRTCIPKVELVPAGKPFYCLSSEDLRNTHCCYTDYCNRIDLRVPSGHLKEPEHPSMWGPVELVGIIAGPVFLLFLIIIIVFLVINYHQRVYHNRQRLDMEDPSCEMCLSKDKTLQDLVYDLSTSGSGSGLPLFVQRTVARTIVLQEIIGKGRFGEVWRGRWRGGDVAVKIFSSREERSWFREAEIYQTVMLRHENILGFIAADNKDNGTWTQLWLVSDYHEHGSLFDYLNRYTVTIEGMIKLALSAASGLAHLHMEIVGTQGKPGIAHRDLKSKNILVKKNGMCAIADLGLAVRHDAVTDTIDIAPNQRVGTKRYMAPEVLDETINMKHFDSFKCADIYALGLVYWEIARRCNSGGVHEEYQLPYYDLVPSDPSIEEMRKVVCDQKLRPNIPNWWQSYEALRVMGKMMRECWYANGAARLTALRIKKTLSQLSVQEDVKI

[2] = molecular target: T2, wild type (wt) HA-tagged TβR-I (UniProt P36897); test: affinity cross-linking and immunoprecipitation
T2 sequence (looked up): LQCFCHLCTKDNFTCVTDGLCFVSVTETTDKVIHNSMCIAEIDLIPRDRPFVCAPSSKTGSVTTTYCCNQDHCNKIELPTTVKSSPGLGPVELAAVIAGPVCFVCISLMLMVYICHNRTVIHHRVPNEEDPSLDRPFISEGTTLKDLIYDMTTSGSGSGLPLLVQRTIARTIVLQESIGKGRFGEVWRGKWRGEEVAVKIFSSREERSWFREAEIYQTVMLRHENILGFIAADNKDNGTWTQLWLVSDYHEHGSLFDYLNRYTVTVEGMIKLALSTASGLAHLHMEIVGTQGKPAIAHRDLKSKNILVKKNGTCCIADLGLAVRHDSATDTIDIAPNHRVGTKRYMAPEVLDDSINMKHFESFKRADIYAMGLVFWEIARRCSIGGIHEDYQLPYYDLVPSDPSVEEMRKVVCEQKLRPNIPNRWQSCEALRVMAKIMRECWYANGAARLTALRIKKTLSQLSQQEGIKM

[3] = molecular target: T3, activin type IB receptor (ActR-IB), kinase-defective (UniProt P36896); test: affinity cross-linking with 125I-activin A, immunoprecipitation, autoradiography
T3 sequence (looked up): T1 sequence (looked up) with K211R

[4] = molecular target: T1, activin type IB receptor (ActR-IB), wild type; test: as above
[5] = molecular target: TGF-β receptor complexes (UniProt P36897); test: affinity cross-linking with 125I-TGF-β1, coprecipitation from COS-7 lysates, autoradiography
[6] = molecular target: T4, kinase-defective (KR) HA-tagged TβR-I (UniProt P36897); test: affinity cross-linking with 125I-TGF-β1, anti-FLAG immunoprecipitation from COS-7 lysates, autoradiography
T4 sequence (looked up): T2 sequence (looked up) with K199R

[7] = molecular target: T2, wild type (wt) HA-tagged TβR-I; test: as above

Measured: binding

B1: FLAG-tagged Smad6 (protein, not shown: small tags and cut ends)
chain: MFRSKRSGLVRRLWRSRVVPDREEGSGGGGGVDEDGSLGSRAEPAPRAREGGGCSRSEVRSVAPRRPRDAVGPRGAAIAGRRRRTGGLPRPVSESGAGAGGSPLDVAEPGGPGWLPESDCETVTCCLFSERDAAGAPRDSGDPQARQSPEPEEGGGPRSREARSRLLLLEQELKTVTYSLLKRLKERSLDTLLEAVESRGGVPGGCVLVPRADLRLGGQPAPPQLLLGRLFRWPDLQHAVELKPLCGCHSFTAAADGPTVCCNPYHFSRLCGPESPPPPYSRLSPPDQYKPLDLSDSTLSYTETEATNSLITAPGEFSDASMSPDATKPSHWCSVAYWEHRTRVGRLYAVYDQAVSIFYDLPQGSGFCLGQLNLEQRSESVRRTRSKIGFGILLSKEPDGVWAYNRGEHPIFVNSPTLDAPGGRALVVRKVPPGYSIKVFDFERSGLLQHADAAHGPYDPHSVRISFAKGWGPCYSRQFITSCPCWLEILLNNHR
binds: all assays above
